The target in this experiment is type 2 TGFβ receptor (TGFβIIR) (human (endogenous in Bel7404)) (UniProt P37173). Briefly: co-IP; 1 mg extracted cell protein incubated with 2 µg DDDDK (FLAG) tag and TGFβIIR antibody overnight at 4 °C, then 12 h with Protein A/G agarose beads at 4 °C; washed three times with IP lysis buffer; SDS-PAGE and western blotting.

Amino acid sequences for entries named in this document (tags omitted). Residues count along the entry.
UniProt P37173, residues 23-567: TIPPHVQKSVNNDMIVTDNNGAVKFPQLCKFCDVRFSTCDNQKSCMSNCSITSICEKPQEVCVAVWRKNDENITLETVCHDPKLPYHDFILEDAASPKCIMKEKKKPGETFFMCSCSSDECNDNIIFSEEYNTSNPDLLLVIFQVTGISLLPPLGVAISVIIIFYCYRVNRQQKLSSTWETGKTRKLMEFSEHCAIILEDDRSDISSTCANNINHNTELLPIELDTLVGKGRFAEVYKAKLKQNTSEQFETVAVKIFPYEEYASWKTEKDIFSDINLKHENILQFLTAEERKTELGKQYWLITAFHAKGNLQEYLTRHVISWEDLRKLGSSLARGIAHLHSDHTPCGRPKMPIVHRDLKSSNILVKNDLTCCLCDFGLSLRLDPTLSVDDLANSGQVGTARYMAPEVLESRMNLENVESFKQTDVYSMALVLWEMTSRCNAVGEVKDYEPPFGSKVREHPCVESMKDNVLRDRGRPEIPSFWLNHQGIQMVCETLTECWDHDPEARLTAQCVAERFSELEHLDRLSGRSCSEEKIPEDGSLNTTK
UniProt Q8IX30, residues 21-993: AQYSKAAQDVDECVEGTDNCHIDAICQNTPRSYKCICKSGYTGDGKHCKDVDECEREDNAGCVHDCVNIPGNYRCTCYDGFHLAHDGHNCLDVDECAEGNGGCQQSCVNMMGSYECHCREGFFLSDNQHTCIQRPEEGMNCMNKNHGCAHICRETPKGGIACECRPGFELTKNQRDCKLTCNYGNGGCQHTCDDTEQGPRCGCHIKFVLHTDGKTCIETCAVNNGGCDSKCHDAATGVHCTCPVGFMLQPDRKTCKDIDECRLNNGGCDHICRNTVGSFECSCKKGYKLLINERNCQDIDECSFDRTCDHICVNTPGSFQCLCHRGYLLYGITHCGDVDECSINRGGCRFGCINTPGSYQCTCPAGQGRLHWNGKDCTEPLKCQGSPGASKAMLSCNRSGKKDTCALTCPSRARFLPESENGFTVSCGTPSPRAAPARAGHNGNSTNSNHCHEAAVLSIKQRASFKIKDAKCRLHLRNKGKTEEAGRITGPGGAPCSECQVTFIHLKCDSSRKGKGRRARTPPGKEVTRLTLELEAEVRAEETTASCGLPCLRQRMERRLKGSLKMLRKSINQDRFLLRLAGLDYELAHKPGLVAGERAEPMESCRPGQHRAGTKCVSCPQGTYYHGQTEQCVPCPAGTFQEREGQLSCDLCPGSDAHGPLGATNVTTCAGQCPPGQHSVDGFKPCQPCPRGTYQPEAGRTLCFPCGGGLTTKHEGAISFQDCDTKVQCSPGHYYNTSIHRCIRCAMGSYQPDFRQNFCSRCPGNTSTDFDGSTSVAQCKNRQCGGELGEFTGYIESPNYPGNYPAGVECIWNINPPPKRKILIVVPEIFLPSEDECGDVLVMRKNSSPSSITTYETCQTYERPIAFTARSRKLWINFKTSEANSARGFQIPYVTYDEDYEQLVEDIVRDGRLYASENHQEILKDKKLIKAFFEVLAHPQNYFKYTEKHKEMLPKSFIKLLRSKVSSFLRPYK

Here are results for one substance from PMC8725472.

No constants are given. Whether binding was seen depends on the method and setting. In cells and extracts the contact can be indirect. Some binding calls cover weakened binding; strength is not graded here.

In the case of “signal peptide-CUB-EGF-like domain-containing protein3 (SCUBE3), Flag-tagged (from UniProt Q8IX30-1 21-993)”, the binding entry is on record as “binds”.
